Assay [1] addresses human Notch2 (full-length, expressed on transiently transfected 293T cells) (human) (UniProt Q04721). Nature of the assay: hDelta3-Fc at 10 µg/ml on Notch2-transfected 293T cells, FITC anti-human IgG, fluorescence microscopy; calcium-dependent, abolished by 5 mM EDTA.
Assay [2] has the same target. Nature of the assay: summary sentence of example 5.6 (hDelta3-Fc staining of Notch-transfected 293T cells).

By UniProt entry, the sequences of proteins in these tests, tags left out. Where a name states a change or a piece, a line headed by the entry shows the natural chain unless it says otherwise. Residues count along the entry.
UniProt Q04721, residues 26-2471: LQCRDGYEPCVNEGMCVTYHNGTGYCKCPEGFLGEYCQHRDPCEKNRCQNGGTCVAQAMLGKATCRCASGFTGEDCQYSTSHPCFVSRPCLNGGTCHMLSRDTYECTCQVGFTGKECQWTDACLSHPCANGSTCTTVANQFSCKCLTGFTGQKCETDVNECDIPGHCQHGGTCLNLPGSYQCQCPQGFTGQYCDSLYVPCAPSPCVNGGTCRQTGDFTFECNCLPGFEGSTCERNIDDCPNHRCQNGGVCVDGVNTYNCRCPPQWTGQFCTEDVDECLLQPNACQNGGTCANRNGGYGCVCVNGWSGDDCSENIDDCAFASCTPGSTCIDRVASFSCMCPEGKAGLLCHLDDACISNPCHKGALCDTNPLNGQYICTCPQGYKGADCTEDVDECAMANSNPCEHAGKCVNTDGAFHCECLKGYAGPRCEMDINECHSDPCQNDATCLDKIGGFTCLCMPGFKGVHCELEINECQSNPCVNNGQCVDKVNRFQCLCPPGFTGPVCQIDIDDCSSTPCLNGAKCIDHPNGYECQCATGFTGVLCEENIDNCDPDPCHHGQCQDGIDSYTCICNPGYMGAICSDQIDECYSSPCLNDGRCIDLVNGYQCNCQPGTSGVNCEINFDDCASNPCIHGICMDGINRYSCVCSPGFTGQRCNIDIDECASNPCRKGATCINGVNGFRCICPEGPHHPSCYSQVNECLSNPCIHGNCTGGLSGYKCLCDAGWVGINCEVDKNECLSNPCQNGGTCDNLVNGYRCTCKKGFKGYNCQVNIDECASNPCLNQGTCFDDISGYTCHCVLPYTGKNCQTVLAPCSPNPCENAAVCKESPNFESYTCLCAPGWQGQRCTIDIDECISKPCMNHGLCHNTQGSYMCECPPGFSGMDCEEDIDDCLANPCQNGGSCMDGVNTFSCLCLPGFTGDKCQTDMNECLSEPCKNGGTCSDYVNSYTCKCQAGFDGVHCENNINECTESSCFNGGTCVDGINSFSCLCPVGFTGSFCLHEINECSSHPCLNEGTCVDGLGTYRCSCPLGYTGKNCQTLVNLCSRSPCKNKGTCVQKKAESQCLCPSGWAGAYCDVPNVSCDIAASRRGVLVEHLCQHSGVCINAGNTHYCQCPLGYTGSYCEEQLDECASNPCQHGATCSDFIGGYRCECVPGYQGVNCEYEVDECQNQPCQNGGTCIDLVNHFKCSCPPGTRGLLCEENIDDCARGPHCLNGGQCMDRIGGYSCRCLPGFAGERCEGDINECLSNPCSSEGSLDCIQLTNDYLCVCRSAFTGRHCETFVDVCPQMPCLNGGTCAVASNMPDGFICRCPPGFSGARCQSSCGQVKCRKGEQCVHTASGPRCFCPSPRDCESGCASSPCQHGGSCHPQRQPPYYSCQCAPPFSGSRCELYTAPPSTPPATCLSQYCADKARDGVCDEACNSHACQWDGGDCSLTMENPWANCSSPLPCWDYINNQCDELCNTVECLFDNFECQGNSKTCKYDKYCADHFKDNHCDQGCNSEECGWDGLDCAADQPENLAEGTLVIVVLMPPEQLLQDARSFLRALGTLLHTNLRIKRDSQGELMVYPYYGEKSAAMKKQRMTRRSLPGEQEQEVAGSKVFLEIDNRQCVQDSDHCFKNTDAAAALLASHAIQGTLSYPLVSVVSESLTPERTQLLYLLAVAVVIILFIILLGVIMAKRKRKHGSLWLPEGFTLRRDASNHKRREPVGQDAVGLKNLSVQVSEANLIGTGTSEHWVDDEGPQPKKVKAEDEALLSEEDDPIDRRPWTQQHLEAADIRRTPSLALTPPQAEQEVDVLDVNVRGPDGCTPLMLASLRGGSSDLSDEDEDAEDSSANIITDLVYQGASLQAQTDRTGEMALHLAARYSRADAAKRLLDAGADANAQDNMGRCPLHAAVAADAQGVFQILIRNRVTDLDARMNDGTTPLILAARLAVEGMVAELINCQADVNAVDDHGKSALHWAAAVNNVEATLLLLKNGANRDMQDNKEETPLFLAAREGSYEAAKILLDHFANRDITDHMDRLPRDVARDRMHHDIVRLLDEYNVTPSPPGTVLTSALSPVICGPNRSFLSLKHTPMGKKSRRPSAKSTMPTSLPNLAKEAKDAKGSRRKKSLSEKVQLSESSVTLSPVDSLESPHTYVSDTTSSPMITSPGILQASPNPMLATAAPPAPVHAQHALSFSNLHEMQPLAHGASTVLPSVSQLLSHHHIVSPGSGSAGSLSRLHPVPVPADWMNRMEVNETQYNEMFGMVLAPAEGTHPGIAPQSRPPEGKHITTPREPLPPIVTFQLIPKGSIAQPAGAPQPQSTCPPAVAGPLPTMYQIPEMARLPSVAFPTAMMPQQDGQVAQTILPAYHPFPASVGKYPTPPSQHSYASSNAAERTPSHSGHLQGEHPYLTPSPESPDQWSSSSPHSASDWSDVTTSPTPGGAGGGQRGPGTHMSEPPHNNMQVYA
UniProt Q9NR61: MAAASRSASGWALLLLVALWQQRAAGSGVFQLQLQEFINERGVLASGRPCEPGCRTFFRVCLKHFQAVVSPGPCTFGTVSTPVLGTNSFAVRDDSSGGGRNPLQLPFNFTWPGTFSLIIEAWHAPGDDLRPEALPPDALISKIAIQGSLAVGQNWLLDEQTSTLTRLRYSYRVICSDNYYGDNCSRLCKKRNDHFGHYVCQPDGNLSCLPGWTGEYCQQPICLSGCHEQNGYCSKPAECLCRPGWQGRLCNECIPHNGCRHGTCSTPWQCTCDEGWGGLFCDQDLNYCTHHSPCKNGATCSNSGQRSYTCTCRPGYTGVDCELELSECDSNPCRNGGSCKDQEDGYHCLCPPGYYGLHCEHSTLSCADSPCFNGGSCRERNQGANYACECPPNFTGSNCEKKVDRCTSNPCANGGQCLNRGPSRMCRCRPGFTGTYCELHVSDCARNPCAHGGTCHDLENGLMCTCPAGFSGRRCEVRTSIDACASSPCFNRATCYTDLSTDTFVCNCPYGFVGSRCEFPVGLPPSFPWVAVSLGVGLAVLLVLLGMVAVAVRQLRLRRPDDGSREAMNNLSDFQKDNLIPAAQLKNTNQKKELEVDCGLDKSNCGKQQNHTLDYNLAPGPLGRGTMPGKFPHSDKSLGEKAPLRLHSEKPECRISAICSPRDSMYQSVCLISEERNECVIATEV

These are yes or no findings as the source states them, for the method shown. Some entries that bind do so weakly or less than the wild type.

For “hDelta3-Fc (extracellular domain of hDelta3 fused in frame to the Fc portion of immunoglobulin G) (from UniProt Q9NR61 18-529) (Fc fusion)”, the binding entry in assay [1] and in assay [2] was “binds” in each case.

(Values after patent US20030180784A1.)
